Results from the supplement of paper PMC12067093, “Discovery and optimisation of a covalent ligand for TRIM25 and its application to targeted protein ubiquitination” (Chemical Science, 2025).
Some of the results follow.

Chains of the proteins cited; added tags and fusions are not shown. Lines headed by an entry give the natural chain unless they say otherwise; changes in a name come on top.
UniProt P51991: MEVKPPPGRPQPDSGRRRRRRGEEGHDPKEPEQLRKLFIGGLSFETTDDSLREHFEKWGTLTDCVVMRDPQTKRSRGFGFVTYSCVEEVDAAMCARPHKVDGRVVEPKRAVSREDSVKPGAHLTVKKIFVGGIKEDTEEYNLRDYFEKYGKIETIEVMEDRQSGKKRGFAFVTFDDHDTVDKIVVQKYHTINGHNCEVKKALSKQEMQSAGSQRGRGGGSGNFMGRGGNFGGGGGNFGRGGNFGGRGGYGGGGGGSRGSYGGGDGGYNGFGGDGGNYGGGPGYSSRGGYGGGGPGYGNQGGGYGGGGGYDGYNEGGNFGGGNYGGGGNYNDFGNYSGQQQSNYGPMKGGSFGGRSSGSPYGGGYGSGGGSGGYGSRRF
UniProt P09651: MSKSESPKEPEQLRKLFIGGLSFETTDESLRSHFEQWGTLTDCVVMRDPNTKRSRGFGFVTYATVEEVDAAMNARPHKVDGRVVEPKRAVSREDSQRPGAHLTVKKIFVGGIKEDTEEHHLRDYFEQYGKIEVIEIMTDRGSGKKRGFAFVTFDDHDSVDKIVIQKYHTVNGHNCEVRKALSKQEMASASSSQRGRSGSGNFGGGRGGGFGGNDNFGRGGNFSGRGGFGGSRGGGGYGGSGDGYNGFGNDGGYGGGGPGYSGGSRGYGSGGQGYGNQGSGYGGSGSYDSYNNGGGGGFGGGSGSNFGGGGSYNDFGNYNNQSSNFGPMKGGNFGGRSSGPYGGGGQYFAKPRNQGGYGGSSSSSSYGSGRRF
UniProt O60921: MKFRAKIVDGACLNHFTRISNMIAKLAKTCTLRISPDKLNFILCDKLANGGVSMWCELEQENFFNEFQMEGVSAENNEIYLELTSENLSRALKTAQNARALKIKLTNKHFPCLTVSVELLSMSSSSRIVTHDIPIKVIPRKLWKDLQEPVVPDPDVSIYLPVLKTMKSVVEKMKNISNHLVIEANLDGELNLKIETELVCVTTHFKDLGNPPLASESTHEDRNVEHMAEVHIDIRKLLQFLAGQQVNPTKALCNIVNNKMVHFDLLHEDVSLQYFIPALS
UniProt O43719: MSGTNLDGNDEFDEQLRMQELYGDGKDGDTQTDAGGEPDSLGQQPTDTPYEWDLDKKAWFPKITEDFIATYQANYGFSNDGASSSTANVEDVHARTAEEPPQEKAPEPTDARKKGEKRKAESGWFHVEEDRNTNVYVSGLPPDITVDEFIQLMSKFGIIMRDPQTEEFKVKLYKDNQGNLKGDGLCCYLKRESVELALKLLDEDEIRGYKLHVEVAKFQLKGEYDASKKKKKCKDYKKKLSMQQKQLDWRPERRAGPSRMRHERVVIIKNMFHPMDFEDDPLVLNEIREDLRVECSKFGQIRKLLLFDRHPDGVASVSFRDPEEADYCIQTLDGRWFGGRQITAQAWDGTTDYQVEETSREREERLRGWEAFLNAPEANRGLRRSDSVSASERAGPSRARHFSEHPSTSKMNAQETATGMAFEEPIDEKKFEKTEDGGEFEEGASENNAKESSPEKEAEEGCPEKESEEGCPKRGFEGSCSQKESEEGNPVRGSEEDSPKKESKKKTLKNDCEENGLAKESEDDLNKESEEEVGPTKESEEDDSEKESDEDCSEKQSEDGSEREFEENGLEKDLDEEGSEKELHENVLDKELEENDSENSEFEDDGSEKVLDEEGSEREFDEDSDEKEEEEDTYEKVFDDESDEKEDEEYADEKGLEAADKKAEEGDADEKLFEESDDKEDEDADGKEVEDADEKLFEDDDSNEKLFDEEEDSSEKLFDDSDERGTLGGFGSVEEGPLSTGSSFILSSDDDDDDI
UniProt P51659: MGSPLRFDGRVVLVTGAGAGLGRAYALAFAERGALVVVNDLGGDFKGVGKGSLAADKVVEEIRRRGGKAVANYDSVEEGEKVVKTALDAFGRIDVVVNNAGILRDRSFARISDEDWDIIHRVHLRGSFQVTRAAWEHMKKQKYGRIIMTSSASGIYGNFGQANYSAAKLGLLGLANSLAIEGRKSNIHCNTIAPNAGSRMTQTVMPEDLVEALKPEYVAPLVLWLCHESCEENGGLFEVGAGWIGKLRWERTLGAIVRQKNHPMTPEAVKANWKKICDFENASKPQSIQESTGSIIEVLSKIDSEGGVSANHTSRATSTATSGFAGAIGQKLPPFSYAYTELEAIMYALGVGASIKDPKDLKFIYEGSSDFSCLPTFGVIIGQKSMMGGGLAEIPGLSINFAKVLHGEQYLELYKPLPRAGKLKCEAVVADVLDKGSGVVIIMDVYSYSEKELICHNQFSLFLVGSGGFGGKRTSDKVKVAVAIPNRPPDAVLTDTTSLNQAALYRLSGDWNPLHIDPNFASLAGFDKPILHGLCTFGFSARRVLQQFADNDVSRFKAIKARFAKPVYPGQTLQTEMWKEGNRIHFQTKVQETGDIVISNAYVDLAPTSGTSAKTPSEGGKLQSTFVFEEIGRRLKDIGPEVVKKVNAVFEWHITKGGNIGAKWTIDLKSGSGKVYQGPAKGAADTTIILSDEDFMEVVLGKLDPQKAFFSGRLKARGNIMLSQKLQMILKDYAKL
UniProt P34932: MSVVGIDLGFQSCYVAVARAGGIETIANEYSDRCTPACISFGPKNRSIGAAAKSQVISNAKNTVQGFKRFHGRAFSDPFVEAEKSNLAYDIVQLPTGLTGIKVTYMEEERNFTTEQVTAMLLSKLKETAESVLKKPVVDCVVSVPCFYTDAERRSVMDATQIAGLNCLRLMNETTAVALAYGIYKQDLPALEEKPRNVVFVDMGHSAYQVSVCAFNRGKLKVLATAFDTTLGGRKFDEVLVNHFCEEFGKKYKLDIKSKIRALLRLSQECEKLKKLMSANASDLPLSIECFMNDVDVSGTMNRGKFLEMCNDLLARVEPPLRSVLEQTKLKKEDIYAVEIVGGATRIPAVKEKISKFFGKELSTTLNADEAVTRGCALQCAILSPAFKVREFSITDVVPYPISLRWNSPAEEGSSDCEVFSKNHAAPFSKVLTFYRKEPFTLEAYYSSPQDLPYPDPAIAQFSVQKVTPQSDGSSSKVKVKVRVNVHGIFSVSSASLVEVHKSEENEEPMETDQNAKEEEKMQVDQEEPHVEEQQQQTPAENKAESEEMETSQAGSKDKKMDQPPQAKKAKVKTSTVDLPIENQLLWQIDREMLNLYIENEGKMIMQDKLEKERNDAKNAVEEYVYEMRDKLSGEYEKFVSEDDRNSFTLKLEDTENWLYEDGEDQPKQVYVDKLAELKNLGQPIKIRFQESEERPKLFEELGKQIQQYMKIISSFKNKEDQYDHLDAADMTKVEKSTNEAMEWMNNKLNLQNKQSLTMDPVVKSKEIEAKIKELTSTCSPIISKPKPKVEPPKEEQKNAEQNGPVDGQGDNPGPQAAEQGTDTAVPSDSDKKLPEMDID
UniProt P00492: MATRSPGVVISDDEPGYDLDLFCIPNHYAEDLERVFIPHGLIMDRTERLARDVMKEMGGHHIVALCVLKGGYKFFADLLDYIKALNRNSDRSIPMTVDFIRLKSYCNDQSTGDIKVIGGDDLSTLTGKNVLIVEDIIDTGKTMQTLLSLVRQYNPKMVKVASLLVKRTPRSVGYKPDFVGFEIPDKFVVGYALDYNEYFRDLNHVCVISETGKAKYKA
UniProt P31943: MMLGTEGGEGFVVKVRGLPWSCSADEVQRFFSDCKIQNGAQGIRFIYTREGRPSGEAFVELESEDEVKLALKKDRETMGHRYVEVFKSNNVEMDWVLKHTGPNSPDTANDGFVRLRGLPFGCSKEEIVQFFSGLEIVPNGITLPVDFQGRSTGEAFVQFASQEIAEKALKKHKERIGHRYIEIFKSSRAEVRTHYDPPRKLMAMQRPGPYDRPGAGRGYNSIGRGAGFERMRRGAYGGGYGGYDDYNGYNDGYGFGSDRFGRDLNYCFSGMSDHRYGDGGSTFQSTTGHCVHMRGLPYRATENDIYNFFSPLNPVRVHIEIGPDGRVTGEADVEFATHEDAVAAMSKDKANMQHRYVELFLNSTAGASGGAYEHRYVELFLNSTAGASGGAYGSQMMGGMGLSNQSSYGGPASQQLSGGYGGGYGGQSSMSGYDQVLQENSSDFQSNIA
UniProt Q9BUP3: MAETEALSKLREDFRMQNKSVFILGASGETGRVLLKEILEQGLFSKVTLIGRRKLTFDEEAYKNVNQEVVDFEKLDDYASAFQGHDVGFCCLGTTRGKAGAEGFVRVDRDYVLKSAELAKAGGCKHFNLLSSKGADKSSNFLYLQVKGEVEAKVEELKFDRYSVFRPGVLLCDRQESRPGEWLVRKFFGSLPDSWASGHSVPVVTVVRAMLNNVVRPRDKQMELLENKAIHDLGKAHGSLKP
UniProt Q5SSJ5: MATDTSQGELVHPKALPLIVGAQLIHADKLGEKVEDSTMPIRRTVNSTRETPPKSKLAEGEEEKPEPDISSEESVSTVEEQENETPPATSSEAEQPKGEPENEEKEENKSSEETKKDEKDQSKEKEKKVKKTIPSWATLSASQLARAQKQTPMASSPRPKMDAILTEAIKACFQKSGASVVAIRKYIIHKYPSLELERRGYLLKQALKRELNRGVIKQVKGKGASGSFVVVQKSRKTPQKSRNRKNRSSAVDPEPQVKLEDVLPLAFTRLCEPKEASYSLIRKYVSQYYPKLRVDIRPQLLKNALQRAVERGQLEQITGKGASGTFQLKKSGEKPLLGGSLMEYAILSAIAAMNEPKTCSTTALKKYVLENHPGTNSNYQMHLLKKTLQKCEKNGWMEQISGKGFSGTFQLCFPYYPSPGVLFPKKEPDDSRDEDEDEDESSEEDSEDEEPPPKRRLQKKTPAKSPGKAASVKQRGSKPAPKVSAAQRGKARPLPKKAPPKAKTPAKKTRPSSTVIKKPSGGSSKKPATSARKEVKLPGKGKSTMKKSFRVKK
UniProt P54652, whole entry, looked up: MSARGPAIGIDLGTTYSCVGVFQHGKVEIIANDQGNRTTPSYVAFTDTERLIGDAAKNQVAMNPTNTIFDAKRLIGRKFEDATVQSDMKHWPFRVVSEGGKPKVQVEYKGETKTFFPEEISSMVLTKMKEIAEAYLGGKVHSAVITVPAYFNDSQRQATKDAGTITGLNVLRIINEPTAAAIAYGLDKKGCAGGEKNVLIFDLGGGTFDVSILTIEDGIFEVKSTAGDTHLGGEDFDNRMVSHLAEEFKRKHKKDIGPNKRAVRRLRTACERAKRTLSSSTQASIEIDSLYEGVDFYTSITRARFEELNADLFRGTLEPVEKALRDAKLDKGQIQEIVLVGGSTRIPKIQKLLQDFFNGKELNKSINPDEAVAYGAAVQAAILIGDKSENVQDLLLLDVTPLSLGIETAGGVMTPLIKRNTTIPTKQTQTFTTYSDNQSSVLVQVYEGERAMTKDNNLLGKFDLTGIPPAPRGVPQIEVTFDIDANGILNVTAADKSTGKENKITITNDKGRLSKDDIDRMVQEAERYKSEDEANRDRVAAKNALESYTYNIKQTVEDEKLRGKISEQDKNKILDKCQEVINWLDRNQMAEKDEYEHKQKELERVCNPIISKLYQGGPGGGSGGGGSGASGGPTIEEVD

Compound: Cc1cc(ccc1-c1ccccc1)C(=O)N1CCCN(CC1)C(=O)CCl [compound 10]
Test: probe-labelled cysteine peptide fold change vs DMSO (competition) (log2 fold change); higher = less target engagement (more negative = stronger competition)
Conditions: THP-1, incubation time: 4 h
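Also: competitive profiling in live THP-1 cells: cysteine peptides tagged with an iodoacetamide desthiobiotin (IA-DTB) probe, intensity after compound treatment relative to DMSO-treated cells.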

| Target | probe-labelled cysteine peptide fold change (10 µM) | probe-labelled cysteine peptide fold change (50 µM) |
| --- | --- | --- |
| HNRNPA3_P51991_196_YHTINGHNCEVK (UniProt P51991) | 0.0535 | 0.0559 |
| HNRNPA1_P09651_43_SHFEQWGTLTDCVVMRDPNTKR (UniProt P09651) | -0.036 | -0.51 |
| HUS1_O60921_200_IETELVCVTTHFK (UniProt O60921) | 0.254 | 0.172 |
| HTATSF1_O43719_186_GDGLCCYLK (UniProt O43719) | -0.216 | -0.205 |
| HSD17B4_P51659_425_LKCEAVVADVLDK (UniProt P51659) | -0.0619 | 0.114 |
| HSPA4_P34932_167_SVMDATQIAGLNCLR (UniProt P34932) | 0.0619 | 0.194 |
| HNRNPA3_P51991_196_YHTINGHNCEVKK (UniProt P51991) | -0.0477 | -0.0806 |
| HPRT1_P00492_206_DLNHVCVISETGK (UniProt P00492) | 0.0701 | -0.0429 |
| HNRNPH1_P31943_290_YGDGGSTFQSTTGHCVHMR (UniProt P31943) | 0.0334 | -0.0583 |
| HSP90AA1_P07900_597_LVTSPCCIVTSTYGWTANMER (UniProt P07900) | 0.0642 | 0.0456 |
| HTATIP2_Q9BUP3_90_LDDYASAFQGHDVGFCCLGTTR (UniProt Q9BUP3) | 0.0592 | 0.00422 |
| HNRNPA3_P51991_64_WGTLTDCVVMRDPQTKR (UniProt P51991) | -0.273 | -0.937 |
| HP1BP3_Q5SSJ5_412_GFSGTFQLCFPYYPSPGVLFPK (UniProt Q5SSJ5) | -0.25 | -0.0596 |
| HSPA2_P54652_191_KGCAGGEK (UniProt P54652) | -0.0292 | -0.297 |

Some of the entries so far, with bars between the fields:
Target | probe-labelled cysteine peptide fold change (10 µM) | probe-labelled cysteine peptide fold change (50 µM)
HNRNPA3_P51991_196_YHTINGHNCEVK (UniProt P51991) | 0.0535 | 0.0559
HSD17B4_P51659_425_LKCEAVVADVLDK (UniProt P51659) | -0.0619 | 0.114
HPRT1_P00492_206_DLNHVCVISETGK (UniProt P00492) | 0.0701 | -0.0429
